Values from PubChem BioAssay AID1259308 (NCATS, 2017)
Purpose: 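Genes whose loss raises luciferase production in HEK293 cells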 (primary screen). System: human HEK293 embryonic kidney cells stably expressing firefly luciferase (HEK-CMV-Luc2-Hygro). Reagents: single siRNA against human genes, 0.8 pmol siRNA per well. Time to read-out: 72 h. Read-out: 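Reporter luminescence and viable-cell signal on separate replicate plates, given as percent of non-targeting control and median/MAD z-scores, plus per-cell luciferase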. Scale: total luciferase, z-score and total luciferase, % of control: higher = more reporter protein produced. Call rule: 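An siRNA counts as active if its total luciferase robust z-score exceeds 3; genes with two or more such siRNAs out of three were retested with fresh siRNAs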. Calls: active = raised luciferase; inactive = no rise.
The whole screen tested about 59,000 reagents; this is a part drawn at random. Of all reagents, about 1,510 (2.6%) are marked active. 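Calls use total luciferase alone and ignore viability, so some active siRNAs may act by altering cell number.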 Reagents against one gene are numbered here. Not all columns of the deposit are shown.

How did the screen score ZNF157 #1?
total luciferase, z-score: 1.75; total luciferase, % of control: 117; Call: inactive

What did the screen give for ZNF157 #2?
total luciferase, z-score: 1.36; total luciferase, % of control: 109; Call: inactive

With ZNF157 #3, what was measured?
total luciferase, z-score: -0.15; total luciferase, % of control: 78.9; Call: inactive

For HOMEZ #1, what was measured?
total luciferase, z-score: -0.532; total luciferase, % of control: 71.3; Call: inactive

For HOMEZ #2, what was measured?
total luciferase, z-score: 2.08; total luciferase, % of control: 123; Call: inactive

What is on record for HOMEZ #3?
total luciferase, z-score: 1.03; total luciferase, % of control: 102; Call: inactive

What is on record for LBHD1 #1?
total luciferase, z-score: -0.274; total luciferase, % of control: 76.4; Call: inactive

Which result is listed for LBHD1 #2?
total luciferase, z-score: 0.703; total luciferase, % of control: 95.9; Call: inactive

With LBHD1 #3, what does the deposit list?
total luciferase, z-score: -0.627; total luciferase, % of control: 69.4; Call: inactive

With INIP #1, how do the results read?
total luciferase, z-score: 0.9; total luciferase, % of control: 99.8; Call: inactive

For INIP #2, how do the results read?
total luciferase, z-score: 1.5; total luciferase, % of control: 112; Call: inactive

For INIP #3, what does the deposit list?
total luciferase, z-score: 1.69; total luciferase, % of control: 116; Call: inactive

For ZNF160 #1, what does the deposit list?
total luciferase, z-score: 0.803; total luciferase, % of control: 97.9; Call: inactive

Which result is listed for ZNF160 #2?
total luciferase, z-score: -2.01; total luciferase, % of control: 41.9; Call: inactive

For ZNF160 #3, what was measured?
total luciferase, z-score: -0.847; total luciferase, % of control: 65; Call: inactive

What did the screen give for FMO4 #1?
total luciferase, z-score: -0.915; total luciferase, % of control: 63.7; Call: inactive

How did the screen score FMO4 #2?
total luciferase, z-score: 0.784; total luciferase, % of control: 97.5; Call: inactive

With FMO4 #3, what does the deposit list?
total luciferase, z-score: 0.703; total luciferase, % of control: 95.9; Call: inactive

For PTPRT #1, what was measured?
total luciferase, z-score: 1.57; total luciferase, % of control: 113; Call: inactive

How did the screen score PTPRT #2?
total luciferase, z-score: 0.739; total luciferase, % of control: 96.6; Call: inactive

With PTPRT #3, what was measured?
total luciferase, z-score: -0.575; total luciferase, % of control: 70.5; Call: inactive

Which result is listed for RFWD3 #1?
total luciferase, z-score: -0.601; total luciferase, % of control: 69.9; Call: inactive

For RFWD3 #2, how do the results read?
total luciferase, z-score: 1.91; total luciferase, % of control: 120; Call: inactive

For RFWD3 #3, how do the results read?
total luciferase, z-score: 0.668; total luciferase, % of control: 95.2; Call: inactive

How did the screen score VMA12 #1?
total luciferase, z-score: -0.236; total luciferase, % of control: 77.2; Call: inactive

For VMA12 #2, what does the deposit list?
total luciferase, z-score: 0.113; total luciferase, % of control: 84.1; Call: inactive

For VMA12 #3, how do the results read?
total luciferase, z-score: -0.232; total luciferase, % of control: 77.3; Call: inactive

For IFT52 #1, how do the results read?
total luciferase, z-score: 0.556; total luciferase, % of control: 92.9; Call: inactive

With IFT52 #2, what was measured?
total luciferase, z-score: -0.206; total luciferase, % of control: 77.8; Call: inactive

With IFT52 #3, how do the results read?
total luciferase, z-score: 0.604; total luciferase, % of control: 93.9; Call: inactive

With CSNK2A2 #1, what was measured?
total luciferase, z-score: 0.502; total luciferase, % of control: 91.9; Call: inactive

What is on record for CSNK2A2 #2?
total luciferase, z-score: -0.0979; total luciferase, % of control: 79.9; Call: inactive

With CSNK2A2 #3, what does the deposit list?
total luciferase, z-score: -0.535; total luciferase, % of control: 71.3; Call: inactive
